According to PMC3464605, “Thermodynamic analysis of DNA binding by a Bacillus single stranded DNA binding protein”:
These are yes or no findings as the source states them, for the method shown.

Molecular target: single-stranded DNA binding protein of Bacillus anthracis (SSBBA) (Bacillus anthracis) (UniProt Q81JI3)
Experiment: SEC; both purified

B1: single-stranded DNA binding protein of Bacillus anthracis (SSBBA) (protein, UniProt Q81JI3 1-172)
chain: MNRVILVGRLTKDPDLRYTPNGVAVATFTLAVNRAFANQQGEREADFINCVIWRKQAENVANYLKKGSLAGVDGRLQTRNYEGQDGKRVYVTEVLAESVQFLEPRNGGGEQRGSFNQQPSGAGFGNQSSNPFGQSSNSGNQGNQGNSGFTKNDDPFSNVGQPIDISDDDLPF
For B1, the binding was “no binding (tested: 100 μg/ml)”.
